Series [1] has as its system source genes (mRNA) in tumor and normal tissues. Nature of the series: Expression profiling of genes encoding the peptides (RNAseq). Further details: species or system human. The settings on record: for Gene Expression in tumor samples: highly over-expressed (++): tumor types in which the peptide's source gene is highly over-expressed compared to a panel of normal tissues (RNAseq); for Gene Expression in tumor samples: over-expressed (+): tumor types in which the peptide's source gene is over-expressed compared to a panel of normal tissues (RNAseq); for Gene Expression in tumor samples: very highly over-expressed (+++): tumor types in which the peptide's source gene is very highly over-expressed compared to a panel of normal tissues (RNAseq).

In series [2] the test system is HLA molecules of primary tumor and normal tissue samples. Nature of the series: Identification and quantitation of tumor associated peptides presented on the cell surface (HLA immunoprecipitation, label-free LC-MS). The settings on record: cancer entities on which the peptide was found presented (HLA immunoprecipitation, LC-MS); abbreviations in table footnotes. Details: species or system human.

For part of these data: For expression read-outs the peptide stands for its source gene, whose mRNA was measured; the gene is not named for every peptide.

Regarding “253: peptide found in EGFR (gene looked up) (QEILHGAVRF; listed as Homo sapiens) [compound 253]”, in series [1], the “Gene Expression in tumor samples: highly over-expressed (++)” value is on record as “GBM”. Besides, the “Peptide Presentation on cancer entities” value in series [2] was “CCC, CRC, GBC, GBM, GC, HCC, HNSCC, NSCLCadeno, NSCLCsquam, OSCAR, PRCA, RCC, UBC”.
With “237: peptide found in ROS1 (gene looked up) (QEIGQKTSV; listed as Homo sapiens) [compound 237]”, in series [1], the “Gene Expression in tumor samples: highly over-expressed (++)” value was “NSCLCadeno” and the “Gene Expression in tumor samples: over-expressed (+)” value (“Gene Expression … over-expressed (+)” below) is listed as “NSCLCother, NSCLCsquam”. In addition, in series [2], the “Peptide Presentation on cancer entities” value is “MEL”.
For the substance “258: peptide found in APOB (gene looked up) (IEVSSPITL; listed as Homo sapiens) [compound 258]”, the “Gene Expression in tumor samples: highly over-expressed (++)” value in series [1] is listed as “HCC”. Also, the “Peptide Presentation on cancer entities” value in series [2] is listed as “CCC, HCC, NSCLCadeno”.
As to “139: peptide found in LOXL4 (gene looked up) (AESDFSNNML; listed as Homo sapiens) [compound 139]”, the “Gene Expression in tumor samples: highly over-expressed (++)” value in series [1] is on record as “MEL”. Besides, the “Peptide Presentation on cancer entities” value in series [2] is given as “MEL”.
For “291: peptide found in FERMT1 (gene looked up) (DEQLLLRF; listed as Homo sapiens) [compound 291]”, in series [1], the “Gene Expression in tumor samples: highly over-expressed (++)” value is listed as “CRC” and the “Gene Expression … over-expressed (+)” value is “GC, HNSCC, NSCLCsquam, OSCAR, UBC”. In addition, the “Peptide Presentation on cancer entities” value in series [2] is reported as “CRC, OSCAR”.
As to “447: peptide found in FOLH1 (gene looked up) (KEFGLDSVEL; listed as Homo sapiens) [compound 447]”, the “Gene Expression in tumor samples: highly over-expressed (++)” value in series [1] was “PRCA”. Besides, in series [2], the “Peptide Presentation on cancer entities” value was “CCC, HCC”.
For “284: peptide found in ROR1 (gene looked up) (SQYPHTHTF; listed as Homo sapiens) [compound 284]” the same measures were “CLL” and “CLL”.
“7: peptide found in TRPM8 (gene looked up) (SESDLVNFI; listed as Homo sapiens) [compound 7]”: in series [1], the “Gene Expression in tumor samples: highly over-expressed (++)” value is “GBM, MEL” and the “Gene Expression in tumor samples: very highly over-expressed (+++)” value is “PRCA”. For the same substance, the “Peptide Presentation on cancer entities” value in series [2] is recorded as “PRCA”.
For the substance “82: peptide found in F5 (gene looked up) (AVFDESKSW; listed as Homo sapiens) [compound 82]”, in series [1], the “Gene Expression in tumor samples: highly over-expressed (++)” value is on record as “HCC” and the “Gene Expression … over-expressed (+)” value is “CCC”. Besides, the “Peptide Presentation on cancer entities” value in series [2] is recorded as “HCC, OSCAR”.
“274: peptide found in PDE11A (gene looked up) (DEIDKLTGY; listed as Homo sapiens) [compound 274]”: in series [1], the “Gene Expression in tumor samples: highly over-expressed (++)” value was “PRCA”. Besides, in series [2], the “Peptide Presentation on cancer entities” value was “GC, HCC, PRCA”.
On the same counts, the results for “51: peptide found in DNTT (gene looked up) (VEMTGKHQL; listed as Homo sapiens) [compound 51]” are “AML” and “AML”.
As for “399: peptide found in HPGDS (gene looked up) (IEQADWPEI; listed as Homo sapiens) [compound 399]”, in series [1], the “Gene Expression … over-expressed (+)” value was “AML”. Moreover, the “Peptide Presentation on cancer entities” value in series [2] was “NSCLCadeno”.
Consider “56: peptide found in SRMS (gene looked up) (ALEEGGGYIF; listed as Homo sapiens) [compound 56]”, for which, in series [1], the “Gene Expression in tumor samples: highly over-expressed (++)” value is on record as “CRC, OC” and the “Gene Expression … over-expressed (+)” value is “BRCA, GBC, GBM, GC, HNSCC, MEL, NSCLCadeno, NSCLCother, OSCAR, PACA, UBC, UEC”. Besides, in series [2], the “Peptide Presentation on cancer entities” value is on record as “HCC”.
In the case of “373: peptide found in MET (gene looked up) (REDPIVYEI; listed as Homo sapiens) [compound 373]”, in series [1], the “Gene Expression … over-expressed (+)” value was “CCC, GBC, RCC”. For the same substance, the “Peptide Presentation on cancer entities” value in series [2] is given as “MEL, NSCLCadeno, UBC”.
“184: peptide found in DNTT (gene looked up) (EEQLLQKVM; listed as Homo sapiens) [compound 184]”: the “Gene Expression in tumor samples: highly over-expressed (++)” value in series [1] is “AML”. Further, in series [2], the “Peptide Presentation on cancer entities” value is recorded as “AML”.
Consider “259: peptide found in APOB (gene looked up) (IEVSSPITLQAL; listed as Homo sapiens) [compound 259]”, for which the “Gene Expression in tumor samples: highly over-expressed (++)” value in series [1] is on record as “HCC”. The “Peptide Presentation on cancer entities” value in series [2] is “CCC, NSCLCadeno, OC”.
“290: peptide found in CBX2 (gene looked up) (AECILSKRL; listed as Homo sapiens) [compound 290]”: in series [1], the “Gene Expression in tumor samples: highly over-expressed (++)” value is given as “SCLC” and the “Gene Expression … over-expressed (+)” value is “AML, BRCA, GBC, GBM, HNSCC, MEL, NSCLCother, NSCLCsquam, OC, OSCAR, UEC”. For the same substance, the “Peptide Presentation on cancer entities” value in series [2] is “BRCA, HNSCC”.
As for “293: peptide found in FERMT1 (gene looked up) (QEDEQLLLRF; listed as Homo sapiens) [compound 293]”, in series [1], the “Gene Expression in tumor samples: highly over-expressed (++)” value is “CRC” and the “Gene Expression … over-expressed (+)” value is listed as “GC, HNSCC, NSCLCsquam, OSCAR, UBC”. The “Peptide Presentation on cancer entities” value in series [2] is reported as “CRC, OSCAR”.
Consider “2: peptide found in KLK2 (gene looked up) (EEFLRPRSL; listed as Homo sapiens) [compound 2]”, for which, in series [1], the “Gene Expression … over-expressed (+)” value is listed as “CLL” and the “Gene Expression in tumor samples: very highly over-expressed (+++)” value was “PRCA”. In addition, the “Peptide Presentation on cancer entities” value in series [2] is on record as “PRCA”.
Consider “11: peptide found in TRPM8 (gene looked up) (EENIVAIGI; listed as Homo sapiens) [compound 11]”, for which, in series [1], the “Gene Expression in tumor samples: highly over-expressed (++)” value is given as “GBM”, the “Gene Expression … over-expressed (+)” value is “MEL” and the “Gene Expression in tumor samples: very highly over-expressed (+++)” value was “PRCA”. For the same substance, the “Peptide Presentation on cancer entities” value in series [2] is listed as “PRCA”.
For “215: peptide found in GPR143 (gene looked up) (SAMWIQLLY; listed as Homo sapiens) [compound 215]”, the “Gene Expression in tumor samples: highly over-expressed (++)” value in series [1] is on record as “MEL”. Also, in series [2], the “Peptide Presentation on cancer entities” value is recorded as “MEL”.
In the case of “391: peptide found in RXFP1 (gene looked up) (TESIGAQIY; listed as Homo sapiens) [compound 391]”, in series [1], the “Gene Expression … over-expressed (+)” value is “UEC”.
Same read-out and setting: under “392: peptide found in RXFP1 (gene looked up) (TEVSVLLLTF; listed as Homo sapiens) [compound 392]” stands “UEC”.
Take “89: peptide found in CYP4Z1 (gene looked up) (KEFYPVKEF; listed as Homo sapiens) [compound 89]”: in series [1], the “Gene Expression in tumor samples: very highly over-expressed (+++)” value is “BRCA”.
With “125: peptide found in LOXL4 (gene looked up) (LEVLHQGQW; listed as Homo sapiens) [compound 125]”, in series [1], the “Gene Expression in tumor samples: highly over-expressed (++)” value is “MEL” and the “Gene Expression … over-expressed (+)” value is “CCC”.
Take “150: peptide found in PTPRZ1 (gene looked up) (SEVFHVSEA; listed as Homo sapiens) [compound 150]”: in series [1], the “Gene Expression in tumor samples: highly over-expressed (++)” value is on record as “GBM”.
On to “119: peptide found in LOXL4 (gene looked up) (VEVKYEGHW; listed as Homo sapiens) [compound 119]”, for which, in series [1], the “Gene Expression in tumor samples: highly over-expressed (++)” value is listed as “MEL” and the “Gene Expression … over-expressed (+)” value was “CCC”.
For “117: peptide found in LOXL4 (gene looked up) (SEVPVDSHY; listed as Homo sapiens) [compound 117]” the same measures were “MEL” and “CCC”.
Take “170: peptide found in MMP16 (gene looked up) (REMFVFKDQW; listed as Homo sapiens) [compound 170]”: in series [1], the “Gene Expression in tumor samples: highly over-expressed (++)” value is given as “GBM, MEL” and the “Gene Expression … over-expressed (+)” value is “BRCA”.
As to “202: peptide found in GRP (gene looked up) (RELPLVLLA; listed as Homo sapiens) [compound 202]”, in series [1], the “Gene Expression in tumor samples: highly over-expressed (++)” value is “SCLC”.
Consider “390: peptide found in RXFP1 (gene looked up) (GEYNKHAQLW; listed as Homo sapiens) [compound 390]”, for which the “Gene Expression … over-expressed (+)” value in series [1] is “UEC”.
Take “214: peptide found in NPFFR2 (gene looked up) (SVNPIIYGF; listed as Homo sapiens) [compound 214]”: in series [1], the “Gene Expression in tumor samples: highly over-expressed (++)” value is “HCC” and the “Gene Expression … over-expressed (+)” value is on record as “GBC”.
Regarding “114: peptide found in LOXL4 (gene looked up) (VEVNGVPRW; listed as Homo sapiens) [compound 114]”, in series [1], the “Gene Expression in tumor samples: highly over-expressed (++)” value is “MEL” and the “Gene Expression … over-expressed (+)” value is listed as “CCC, OSCAR”.
“205: peptide found in ADAMTS12 (gene looked up) (MEIEGAGNFL; listed as Homo sapiens) [compound 205]”: in series [1], the “Gene Expression in tumor samples: highly over-expressed (++)” value was “CCC, GBC” and the “Gene Expression … over-expressed (+)” value is listed as “BRCA, CRC, GC, HNSCC, MEL, NSCLCadeno, NSCLCother, NSCLCsquam, OSCAR, PACA, SCLC, UBC”.

For the origin of these results see patent publication US12065471B2, “B*44 restricted peptides for use in immunotherapy against cancers and related methods” (Immatics Biotechnologies GmbH, priority 2018, dated 2024).
